# ± gives the standard deviation of the averaged measurements. Some of the results follow. The data scatter; read single values as rough.
# Columns and labels:
# [1] = test system: hAMSC donor 1; assay: Hoechst total cell count ratio vs vehicle control; higher = more cells (less toxicity)
# [2] = test system: hAMSC donor 2; assay: as above
# [3] = test system: hAMSC donor 1; assay: transgenic luciferase activity (RLU/mg protein) fold change vs vehicle control (ratio); higher = more transgene expression
# [4] = test system: hAMSC donor 2; assay: as above; details: priming compound concentration 13 µM
# [5] = test system: hAMSC donor 1; assay: transfection efficiency (EGFP+ cells / Hoechst count) fold change vs vehicle control (ratio); hAMSC are human adipose-derived mesenchymal stem cells given an EGFP-luciferase plasmid by lipofection; higher = enhanced transfection
# [6] = test system: hAMSC donor 2; assay: as above
# [7] = priming compound concentration 0.2 µM
# [8] = priming compound concentration 1.7 µM
# [9] = priming compound concentration 13 µM
Compound,"Hoechst total cell count ratio [1, 7]","Hoechst total cell count ratio [1, 8]","Hoechst total cell count ratio [1, 9]","Hoechst total cell count ratio [2, 7]","Hoechst total cell count ratio [2, 8]","Hoechst total cell count ratio [2, 9]","transgenic luciferase activity [3, 7]","transgenic luciferase activity [3, 8]","transgenic luciferase activity [3, 9]",transgenic luciferase activity [4],"transfection efficiency [5, 7]","transfection efficiency [5, 8]","transfection efficiency [5, 9]","transfection efficiency [6, 7]","transfection efficiency [6, 8]","transfection efficiency [6, 9]"
COc1cc(C)nc(-n2nc(C)cc2OC)n1 [Mepirizole],1.35 ± 0.078,1.23 ± 0.15,1.09 ± 0.052,1.04 ± 0.32,0.804 ± 0.14,1.2 ± 0.17,0.402 ± 0.28,0.843 ± 0.46,0.98 ± 0.34,1.21 ± 0.1,1.14 ± 0.21,1.27 ± 0.23,1.05 ± 0.24,0.939 ± 0.081,1.34 ± 0.035,1.28 ± 0.23
Cc1cc(NS(=O)(=O)c2ccc(N)cc2)no1 [Sulfamethoxazole],1.39 ± 0.097,1.06 ± 0.15,1.21 ± 0.11,0.865 ± 0.16,0.888 ± 0.088,1.39 ± 0.086,0.852 ± 0.12,1.52 ± 0.65,0.389 ± 0.36,1.15 ± 0.46,1.17 ± 0.1,1.26 ± 0.17,0.967 ± 0.33,0.914 ± 0.17,1.38 ± 0.095,1.15 ± 0.017
Clc1ccc(COC(Cn2ccnc2)c2ccc(Cl)cc2Cl)c(Cl)c1 (centres undefined) [Miconazole nitrate],1.18 ± 0.22,1.3 ± 0.13,1.22 ± 0.031,1.05 ± 0.36,1.02 ± 0.057,1.52 ± 0.089,0.553 ± 0.15,0.843 ± 0.052,0.476 ± 0.51,0.863 ± 0.36,1.19 ± 0.18,0.878 ± 0.17,0.901 ± 0.23,1.34 ± 0.41,1.11 ± 0.18,1.27 ± 0.084
Oc1ncnc2[nH]ncc12 [Allopurinol],1.14 ± 0.18,1.17 ± 0.16,1.22 ± 0.12,0.748 ± 0.1,0.961 ± 0.17,1.67 ± 0.55,0.785 ± 0.32,0.623 ± 0.23,1.3 ± 0.67,1.08 ± 0.21,1.07 ± 0.084,1.17 ± 0.38,0.944 ± 0.27,1.39 ± 0.17,1.03 ± 0.02,1.38 ± 0.089

# Reference: the supplement of paper PMC7238544
